According to publication doi:10.1101/2024.09.02.610768 (bioRxiv, 2024):
The exact form of at least one protein or probe is not confirmed. For part of these data: A weaker result is weaker than the reference pair of the same experiment. For part of these data: At least one verdict rests on a figure or table, not on a statement of the authors. Protein sequences can lack the tags named with them.

What was measured:
Test in all cases: EMSA
FrzCD = target: T1, FrzCD (UniProt P43500); details: residues 1-417
T1 sequence (looked up): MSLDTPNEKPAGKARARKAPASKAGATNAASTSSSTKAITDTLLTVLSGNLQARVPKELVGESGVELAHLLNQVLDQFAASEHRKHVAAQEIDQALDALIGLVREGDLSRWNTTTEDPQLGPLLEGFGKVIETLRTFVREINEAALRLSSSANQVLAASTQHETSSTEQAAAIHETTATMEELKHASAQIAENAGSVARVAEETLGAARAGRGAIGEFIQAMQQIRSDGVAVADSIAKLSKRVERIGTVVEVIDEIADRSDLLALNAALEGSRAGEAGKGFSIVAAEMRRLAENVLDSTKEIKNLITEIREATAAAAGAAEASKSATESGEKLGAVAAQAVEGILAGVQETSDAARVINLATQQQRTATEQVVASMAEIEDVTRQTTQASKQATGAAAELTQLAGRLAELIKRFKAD

FrzCDΔH1 del31-83 = target: T2, FrzCDΔH1 del31-83 (UniProt P43500)
T2 sequence (looked up, limits assumed): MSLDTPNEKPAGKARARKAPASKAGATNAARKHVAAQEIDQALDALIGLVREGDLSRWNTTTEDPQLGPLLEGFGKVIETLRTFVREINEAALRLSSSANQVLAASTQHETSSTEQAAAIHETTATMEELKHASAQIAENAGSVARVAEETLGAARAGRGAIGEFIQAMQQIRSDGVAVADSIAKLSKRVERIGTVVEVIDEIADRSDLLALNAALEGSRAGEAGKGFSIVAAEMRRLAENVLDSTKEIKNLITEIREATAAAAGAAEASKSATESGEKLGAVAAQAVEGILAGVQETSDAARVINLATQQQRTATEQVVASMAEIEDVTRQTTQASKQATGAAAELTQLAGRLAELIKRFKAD

FrzCDΔH1ΔH2 del31-137 = target: T3, FrzCDΔH1ΔH2 del31-137 (UniProt P43500); details: higher affinity than wild type
T3 sequence (looked up, limits assumed): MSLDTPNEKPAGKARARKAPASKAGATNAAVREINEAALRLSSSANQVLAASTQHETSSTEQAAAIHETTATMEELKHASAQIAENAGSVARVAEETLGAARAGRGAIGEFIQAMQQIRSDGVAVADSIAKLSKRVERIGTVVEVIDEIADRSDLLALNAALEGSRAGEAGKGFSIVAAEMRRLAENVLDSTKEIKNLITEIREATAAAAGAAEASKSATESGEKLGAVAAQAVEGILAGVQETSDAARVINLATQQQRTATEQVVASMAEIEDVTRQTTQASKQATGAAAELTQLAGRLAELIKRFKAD

[1] = target: T4, FrzCDΔH2 (DB-H1-MA) del84-137 (UniProt P43500)
T4 sequence (looked up, limits assumed): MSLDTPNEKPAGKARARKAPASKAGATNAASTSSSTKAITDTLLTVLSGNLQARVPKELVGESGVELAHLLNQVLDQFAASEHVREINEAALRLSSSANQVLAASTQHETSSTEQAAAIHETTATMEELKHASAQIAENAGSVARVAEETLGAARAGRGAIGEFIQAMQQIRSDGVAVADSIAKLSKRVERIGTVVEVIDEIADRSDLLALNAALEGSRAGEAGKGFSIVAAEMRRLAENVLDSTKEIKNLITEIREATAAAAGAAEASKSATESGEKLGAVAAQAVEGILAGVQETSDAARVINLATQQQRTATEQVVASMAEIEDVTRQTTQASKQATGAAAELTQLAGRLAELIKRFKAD

[2] = target: T5, FrzCDΔMA (DB-H1-H2) del138-417 (UniProt P43500); details: smear, unstable complex
T5 sequence (looked up, limits assumed): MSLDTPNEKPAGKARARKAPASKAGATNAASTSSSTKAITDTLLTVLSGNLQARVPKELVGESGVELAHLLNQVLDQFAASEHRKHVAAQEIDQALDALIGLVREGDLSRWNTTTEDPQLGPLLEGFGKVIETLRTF

Row | Sequence | binding result (FrzCD) | binding result (FrzCDΔH1 del31-83) | binding result (FrzCDΔH1ΔH2 del31-137) | binding result [1] | binding result [2]
1 | TAATACGACTCACTATAGGGAGACCACAACGGTTTCCCTCTAGAAATAATTTTGTTTAACTTTAAGAAGGAGATATACATATGTCCCTGGACACCCCCAACGAGAAGCCCGCTGGCAAGGCTCGCGCCCGGAAGGCCCCCGCCTCCAAGGCCGGCGCCACGAACGCGGCGTCGACCTCTTCCTCCACCAAGGCCATCACCGACACGCTGCTGACGGTGCTGTCCGGCAACCTGCAGGCCCGCGTGCCCAAGGAGCTGGTCGGTGAGTCCGGCGTGGAGCTGGCGCACCTGCTCAACCAGGTGCTGGACCAGTTCGCGGCCTCCGAGCACCGCAAGCATGTGGCGGCGCAGGAGATCGACCAGGCGTTGGATGCGCTCATCGGCCTGGTGCGCGAGGGCGGATCCCATCATCATCATCATCATTAAAAGC (double strand) [432 bp DNA] | binds | binds | binds | binds | 
2 | TAATACGACTCACTATAGGG (double strand) [20 bp DNA] | binds |  |  |  | binds more weakly
3 | CTTGCAGTAGAGCTGACCATGATTACGCCATCAGCAGCTCCAGGTCGTACCTCCAGCTACCAATCCCCG (double strand) [69 bp DNA] | binds |  |  |  | 
4 | CTCACTATAGGG (double strand) [12 bp DNA] | binds |  |  |  | 
5 | GTCACCTGCTCTAGCTAATAGACTGAGCCGAGGTG (double strand) [35 bp DNA] | binds |  |  |  | 
